Results from the supplement of paper PMC10849652.
Some of the results follow. Residues, ends and D or L forms follow the SMILES beside them. *: point of attachment. Cbz = O=C(OCc1ccccc1)*

Sequences of proteins named here, by UniProt entry; tags and fusion partners are left off. A change or cut given only in a name is not applied to a line headed by its entry.
UniProt P27694, whole entry, looked up: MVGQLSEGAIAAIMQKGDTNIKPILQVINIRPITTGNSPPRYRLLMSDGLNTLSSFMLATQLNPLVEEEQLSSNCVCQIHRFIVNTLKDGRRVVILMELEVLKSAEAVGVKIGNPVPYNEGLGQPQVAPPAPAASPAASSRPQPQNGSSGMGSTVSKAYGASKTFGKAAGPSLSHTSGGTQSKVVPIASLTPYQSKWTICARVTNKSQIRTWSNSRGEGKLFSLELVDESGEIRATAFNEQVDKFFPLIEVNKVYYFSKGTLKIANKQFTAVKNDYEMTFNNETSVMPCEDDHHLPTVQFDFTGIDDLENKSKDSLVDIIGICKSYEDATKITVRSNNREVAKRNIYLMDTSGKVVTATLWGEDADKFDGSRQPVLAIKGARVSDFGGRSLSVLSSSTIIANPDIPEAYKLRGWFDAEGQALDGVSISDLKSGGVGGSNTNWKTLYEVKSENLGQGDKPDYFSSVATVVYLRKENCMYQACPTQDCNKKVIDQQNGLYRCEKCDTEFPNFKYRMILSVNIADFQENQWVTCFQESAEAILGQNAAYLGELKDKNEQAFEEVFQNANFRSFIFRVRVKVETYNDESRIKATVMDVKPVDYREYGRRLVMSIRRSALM
UniProt O60942: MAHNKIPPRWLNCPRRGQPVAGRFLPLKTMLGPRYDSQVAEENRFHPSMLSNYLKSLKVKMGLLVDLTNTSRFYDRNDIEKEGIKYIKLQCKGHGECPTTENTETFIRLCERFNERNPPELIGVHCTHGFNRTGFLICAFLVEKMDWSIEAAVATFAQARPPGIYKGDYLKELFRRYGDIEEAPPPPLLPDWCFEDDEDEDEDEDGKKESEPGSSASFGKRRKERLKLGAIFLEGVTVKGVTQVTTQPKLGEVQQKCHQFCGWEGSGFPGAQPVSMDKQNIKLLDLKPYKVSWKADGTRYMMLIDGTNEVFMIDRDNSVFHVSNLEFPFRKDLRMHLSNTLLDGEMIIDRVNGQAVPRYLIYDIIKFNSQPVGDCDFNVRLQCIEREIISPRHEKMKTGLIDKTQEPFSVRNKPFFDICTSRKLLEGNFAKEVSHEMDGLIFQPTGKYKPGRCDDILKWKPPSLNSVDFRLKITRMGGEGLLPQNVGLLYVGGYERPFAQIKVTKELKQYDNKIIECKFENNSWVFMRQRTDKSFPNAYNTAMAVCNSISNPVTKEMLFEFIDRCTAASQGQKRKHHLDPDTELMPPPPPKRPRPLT
UniProt Q15287: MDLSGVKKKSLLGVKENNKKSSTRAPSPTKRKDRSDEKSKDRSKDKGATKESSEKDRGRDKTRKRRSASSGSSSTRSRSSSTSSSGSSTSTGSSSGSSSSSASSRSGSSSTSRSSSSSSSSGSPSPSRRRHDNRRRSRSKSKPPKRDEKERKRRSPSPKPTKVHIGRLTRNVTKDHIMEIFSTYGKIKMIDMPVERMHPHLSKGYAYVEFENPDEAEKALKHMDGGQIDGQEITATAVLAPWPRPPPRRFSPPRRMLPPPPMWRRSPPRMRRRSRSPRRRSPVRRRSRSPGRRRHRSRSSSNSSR
UniProt Q13464: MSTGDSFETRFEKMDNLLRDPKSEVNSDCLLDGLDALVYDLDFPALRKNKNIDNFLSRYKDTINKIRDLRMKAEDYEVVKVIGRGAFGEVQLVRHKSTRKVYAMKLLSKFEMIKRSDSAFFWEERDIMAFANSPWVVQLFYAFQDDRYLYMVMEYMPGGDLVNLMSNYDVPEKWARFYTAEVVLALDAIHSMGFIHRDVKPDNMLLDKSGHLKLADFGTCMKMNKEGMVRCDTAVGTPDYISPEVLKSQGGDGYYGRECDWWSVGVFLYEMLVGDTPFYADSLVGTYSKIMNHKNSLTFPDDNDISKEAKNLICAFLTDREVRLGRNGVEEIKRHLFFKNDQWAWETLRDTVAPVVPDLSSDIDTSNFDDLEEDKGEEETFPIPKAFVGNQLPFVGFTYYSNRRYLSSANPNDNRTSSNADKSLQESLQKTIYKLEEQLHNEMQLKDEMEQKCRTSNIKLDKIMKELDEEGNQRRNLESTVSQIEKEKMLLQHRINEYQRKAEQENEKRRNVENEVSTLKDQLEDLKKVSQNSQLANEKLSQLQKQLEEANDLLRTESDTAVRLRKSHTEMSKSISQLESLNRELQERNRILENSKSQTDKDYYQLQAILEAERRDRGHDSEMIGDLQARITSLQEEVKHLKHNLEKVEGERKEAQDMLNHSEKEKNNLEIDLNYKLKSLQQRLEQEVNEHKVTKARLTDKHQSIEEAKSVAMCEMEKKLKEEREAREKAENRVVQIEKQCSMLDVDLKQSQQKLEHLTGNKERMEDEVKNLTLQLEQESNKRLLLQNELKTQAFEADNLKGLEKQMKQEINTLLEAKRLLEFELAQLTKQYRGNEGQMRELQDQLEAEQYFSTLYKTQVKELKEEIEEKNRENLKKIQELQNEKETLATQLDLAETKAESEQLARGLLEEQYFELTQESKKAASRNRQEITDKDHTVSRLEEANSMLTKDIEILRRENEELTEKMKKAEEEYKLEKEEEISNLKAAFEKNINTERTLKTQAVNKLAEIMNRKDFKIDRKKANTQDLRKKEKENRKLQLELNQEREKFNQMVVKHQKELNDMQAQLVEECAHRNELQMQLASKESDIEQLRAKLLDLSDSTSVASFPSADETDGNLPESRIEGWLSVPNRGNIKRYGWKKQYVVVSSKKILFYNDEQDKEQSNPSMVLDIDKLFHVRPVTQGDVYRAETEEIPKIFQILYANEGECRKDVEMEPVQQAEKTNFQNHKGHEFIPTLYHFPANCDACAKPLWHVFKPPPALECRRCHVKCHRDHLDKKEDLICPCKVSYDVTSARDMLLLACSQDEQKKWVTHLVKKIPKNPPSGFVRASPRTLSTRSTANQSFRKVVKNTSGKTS
UniProt Q15418, whole entry, looked up: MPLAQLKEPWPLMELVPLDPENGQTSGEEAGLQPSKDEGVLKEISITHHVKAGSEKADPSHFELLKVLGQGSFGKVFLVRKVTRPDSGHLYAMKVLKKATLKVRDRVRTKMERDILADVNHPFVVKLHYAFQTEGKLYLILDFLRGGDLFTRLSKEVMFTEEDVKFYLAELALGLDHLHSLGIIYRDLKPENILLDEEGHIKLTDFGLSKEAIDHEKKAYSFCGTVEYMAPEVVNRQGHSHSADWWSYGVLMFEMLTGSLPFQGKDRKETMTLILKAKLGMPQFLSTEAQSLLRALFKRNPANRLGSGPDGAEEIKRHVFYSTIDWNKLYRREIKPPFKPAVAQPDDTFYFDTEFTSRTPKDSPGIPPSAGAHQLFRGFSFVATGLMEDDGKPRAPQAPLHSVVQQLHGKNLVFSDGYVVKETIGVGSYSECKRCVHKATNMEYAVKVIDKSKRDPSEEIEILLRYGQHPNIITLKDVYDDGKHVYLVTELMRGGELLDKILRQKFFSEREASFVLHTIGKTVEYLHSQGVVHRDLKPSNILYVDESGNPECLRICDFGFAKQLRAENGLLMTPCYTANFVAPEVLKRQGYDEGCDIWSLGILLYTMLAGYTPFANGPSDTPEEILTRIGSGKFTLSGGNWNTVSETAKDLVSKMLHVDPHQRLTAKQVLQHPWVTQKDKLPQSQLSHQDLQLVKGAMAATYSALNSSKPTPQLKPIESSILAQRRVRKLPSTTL
UniProt Q5VT52: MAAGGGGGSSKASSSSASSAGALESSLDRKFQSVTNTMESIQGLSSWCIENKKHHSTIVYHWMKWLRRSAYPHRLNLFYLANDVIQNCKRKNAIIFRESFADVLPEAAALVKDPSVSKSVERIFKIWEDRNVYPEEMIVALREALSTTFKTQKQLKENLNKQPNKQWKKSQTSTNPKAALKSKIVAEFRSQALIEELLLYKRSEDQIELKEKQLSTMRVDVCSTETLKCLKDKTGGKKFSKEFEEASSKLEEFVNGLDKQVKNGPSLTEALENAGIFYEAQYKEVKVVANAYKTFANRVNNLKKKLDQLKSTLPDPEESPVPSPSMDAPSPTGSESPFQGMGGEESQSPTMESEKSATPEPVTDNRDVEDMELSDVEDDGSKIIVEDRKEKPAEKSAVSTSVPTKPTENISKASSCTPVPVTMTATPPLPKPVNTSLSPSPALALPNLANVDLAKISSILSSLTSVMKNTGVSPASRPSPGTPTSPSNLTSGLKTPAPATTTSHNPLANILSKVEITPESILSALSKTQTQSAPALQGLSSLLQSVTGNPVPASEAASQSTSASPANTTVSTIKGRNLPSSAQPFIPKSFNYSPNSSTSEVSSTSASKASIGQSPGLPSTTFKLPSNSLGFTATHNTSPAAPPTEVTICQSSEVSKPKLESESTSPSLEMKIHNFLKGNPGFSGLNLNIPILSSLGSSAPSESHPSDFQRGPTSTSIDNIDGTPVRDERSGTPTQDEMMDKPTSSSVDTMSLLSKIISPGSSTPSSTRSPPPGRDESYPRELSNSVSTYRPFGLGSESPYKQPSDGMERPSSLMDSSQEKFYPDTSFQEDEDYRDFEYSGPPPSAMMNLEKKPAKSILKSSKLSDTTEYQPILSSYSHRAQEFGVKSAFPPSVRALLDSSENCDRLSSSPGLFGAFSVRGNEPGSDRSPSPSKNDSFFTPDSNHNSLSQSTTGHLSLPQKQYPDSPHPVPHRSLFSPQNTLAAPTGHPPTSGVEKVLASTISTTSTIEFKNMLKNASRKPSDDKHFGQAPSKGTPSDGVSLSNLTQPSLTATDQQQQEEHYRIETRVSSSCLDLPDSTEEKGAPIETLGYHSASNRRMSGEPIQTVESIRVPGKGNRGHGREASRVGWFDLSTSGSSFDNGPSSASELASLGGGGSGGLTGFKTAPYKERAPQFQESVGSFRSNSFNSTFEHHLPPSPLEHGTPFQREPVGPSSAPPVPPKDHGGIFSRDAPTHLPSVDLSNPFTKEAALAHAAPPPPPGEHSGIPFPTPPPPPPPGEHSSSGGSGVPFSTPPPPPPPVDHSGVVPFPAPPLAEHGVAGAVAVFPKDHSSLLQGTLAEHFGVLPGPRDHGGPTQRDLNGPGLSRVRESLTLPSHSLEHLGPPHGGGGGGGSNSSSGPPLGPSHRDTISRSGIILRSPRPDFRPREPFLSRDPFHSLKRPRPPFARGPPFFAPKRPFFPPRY
UniProt Q01974, whole entry, looked up: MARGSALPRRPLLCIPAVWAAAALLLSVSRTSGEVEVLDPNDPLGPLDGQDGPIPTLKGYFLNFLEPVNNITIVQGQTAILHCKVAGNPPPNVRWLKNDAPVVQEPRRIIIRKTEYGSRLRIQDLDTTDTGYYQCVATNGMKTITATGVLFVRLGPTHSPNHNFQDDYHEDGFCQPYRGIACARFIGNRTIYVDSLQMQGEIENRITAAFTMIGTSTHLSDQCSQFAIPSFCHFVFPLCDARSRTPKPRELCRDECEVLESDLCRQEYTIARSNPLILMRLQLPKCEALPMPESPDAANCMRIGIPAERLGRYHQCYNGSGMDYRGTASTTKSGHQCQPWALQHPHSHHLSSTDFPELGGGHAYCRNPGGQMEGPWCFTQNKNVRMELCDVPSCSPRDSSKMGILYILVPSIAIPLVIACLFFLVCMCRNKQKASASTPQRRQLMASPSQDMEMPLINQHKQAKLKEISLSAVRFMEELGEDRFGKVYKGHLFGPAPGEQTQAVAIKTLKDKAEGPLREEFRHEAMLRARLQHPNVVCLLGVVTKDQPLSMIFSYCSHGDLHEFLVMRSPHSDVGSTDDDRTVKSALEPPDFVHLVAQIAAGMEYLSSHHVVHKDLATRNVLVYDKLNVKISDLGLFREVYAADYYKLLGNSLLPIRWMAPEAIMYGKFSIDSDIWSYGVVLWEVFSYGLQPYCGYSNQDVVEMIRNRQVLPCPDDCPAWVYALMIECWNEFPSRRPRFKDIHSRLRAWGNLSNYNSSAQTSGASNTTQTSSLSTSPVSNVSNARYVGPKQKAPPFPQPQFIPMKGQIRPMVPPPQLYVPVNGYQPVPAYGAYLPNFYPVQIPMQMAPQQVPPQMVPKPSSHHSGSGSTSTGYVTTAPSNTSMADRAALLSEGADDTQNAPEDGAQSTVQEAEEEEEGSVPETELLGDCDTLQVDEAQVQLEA

Columns and labels:
Experiment in all cases: log2 fold change, soluble protein after heating vs DMSO (PISA); higher = thermal stabilisation; K562 cells, 10 uM, 30 min; active = over 0.2 and 3.5 SD of the protein, either way, in both replicates (recomputed)
[1] = compound: C#Cc1cccc(Nc2ncnc3cc(OCCOC)c(OCCOC)cc23)c1 [erlotinib]
In short: (§1)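 K562 cells at 2×10^6 cells/mL were exposed to 10 μM compound for 30 min, then aliquots were heated for 3 min across 48°C-58°C, pooled, and extracted in PBS containing 0.5% NP-40 at 4°C. The supernatant after 21,000xg for 90 min was taken as soluble protein and measured by TMTpro 16plex LC-MS/MS with channel sums equalised. Thermal stability is reported relative to control samples, with values from duplicates. Fold changes are given on a log2 scale.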

[2] = compound: C/C(=N\NC(=O)C1=CC(=CC=C1)S(=O)(=O)N2CCOCC2)/C3=C(C=CC(=C3)Cl)O
In short: as §1

[3] = compound: C1=CC(=C(C=C1Cl)C2=NC3=NC=CN=C3C(=N2)NC4=CC=NC=C4)F
In short: as §1

[4] = compound: C1=CC(=CC=C1C2=NC3=C(N2)C=C(C=C3)C(=O)N)OC4=CC=C(C=C4)Cl
In short: as §1

[5] = compound: C1=CC2=C(C=CC(=C2)/C=C\3/C(=O)NC(=NCC4=CC=CS4)S3)N=C1
In short: as §1

[6] = compound: C1=CC2=NC=CN=C2C=C1/C=C/3\C(=O)NC(=O)S3
In short: as §1

[7] = compound: C1=CC=C(C=C1)C2=NC(=C(N2)C3=CC=NC=C3)C4=CC(=C(C=C4)Cl)O
In short: as §1

[8] = compound: C1=CC=C2C(=C1)C3=NNC4=CC=CC(=C43)C2=O
In short: as §1

[9] = compound: C1CCN(C1)C(=O)NC2=CC=CC(=C2)NC3=NC=C(C(=N3)NCCC4=CN=CN4)Br
In short: as §1

[10] = compound: C1CN(CCC1(CC2=CC=C(C=C2)Cl)N)C3=NC=NC4=C3C=CN4
In short: as §1

[11] = compound: C1COCCN1CCN2C3=CC=CC=C3N=C2NC(=O)C4=CC(=CC=C4)[N+](=O)[O-] [IRAK-1-4 Inhibitor I]
In short: as §1

[12] = compound: C=CC(=O)N1CCC[C@@H](n2nc(-c3ccc(Oc4ccccc4)cc3)c3c(N)ncnc32)C1 [ibrutinib]
In short: as §1

[13] = compound: CC(=O)c1cnc2ccc(-c3cc(Cl)c(O)c(Cl)c3)nc2c1N[C@H]1CC[C@H](CN(C)C)CC1
In short: as §1

[14] = compound: CC(C)(C)Cn1c(N)nc2ccc(-c3[nH]c(C(C)(C)C)nc3-c3ccc(F)cc3)nc21 [ralimetinib]
In short: as §1

[15] = compound: CC(C)(O)CC(=O)NCCn1ccc2ncnc(Nc3ccc(Oc4cccc(C(F)(F)F)c4)c(Cl)c3)c21
In short: as §1

[16] = compound: CC(C)C1=C2N=C(C=C(N2N=C1)NCC3=CC=CC=C3)NCCCCCCN
In short: as §1

[17] = compound: CC(C)C[C@@H](C=O)NC(=O)[C@H](CC(C)C)NC(=O)[C@H](CC(C)C)NC(=O)OCc1ccccc1
In short: as §1

[18] = compound: CC(C)N(C[C@H]1O[C@@H](n2cnc3c(N)ncnc32)[C@H](O)[C@@H]1O)[C@H]1C[C@@H](CCc2nc3cc(C(C)(C)C)ccc3[nH]2)C1 [pinometostat]
In short: as §1

[19] = compound: CC1=C(C(CC(=O)N1)C2=CC=C(C=C2)C(F)(F)F)C(=O)NC3=C(C=C4C(=C3)C=NN4)F
In short: as §1

[20] = compound: CC1=C(C2=C(C=C1)C(=O)C3=CC=CC=C3N2CCCN)C
In short: as §1

Measured: log2 fold change

RPL22 (UniProt P35268)
inactive: [1] -0.107 | [2] -0.111 | [3] -0.419 | [4] 0.024 | [5] -0.027 | [6] -0.037 | [7] -0.11 | [8] 0.009 | [9] 0.046 | [10] -0.126 | [11] -0.083 | [12] 0.023 | [13] -0.011 | [14] 0.275 | [15] 0.064 | [16] 0.032 | [17] 0.149 | [18] 0.258 | [19] 0.012 | [20] -0.524

RPA1 (UniProt P27694)
inactive: [1] 0.003 | [2] 0.07 | [3] 0.147 | [4] 0.008 | [5] -0.005 | [6] 0.003 | [7] 0.027 | [8] 0.075 | [9] -0.013 | [10] -0.021 | [11] -0.026 | [12] -0.022 | [13] -0.03 | [14] -0.008 | [15] -0.053 | [16] -0.019 | [17] -0.027 | [18] -0.021 | [20] 0.202

RNGTT (UniProt O60942)
inactive: [1] -0.023 | [2] 0.08 | [3] 0 | [4] 0.045 | [5] 0.153 | [6] -0.011 | [7] 0.09 | [8] 0.016 | [9] -0.043 | [10] 0.05 | [11] -0.041 | [12] -0.109 | [13] -0.052 | [14] -0.117 | [15] -0.02 | [16] -0.021 | [17] 0.048 | [18] -0.396 | [19] -0.011 | [20] 0.071

RPS13 (UniProt P62277)
active: [20] -0.759
inactive: [1] -0.156 | [2] -0.17 | [3] -0.544 | [4] 0.088 | [5] -0.11 | [6] -0.053 | [7] -0.088 | [8] -0.015 | [9] 0.101 | [10] -0.184 | [11] -0.096 | [12] 0.035 | [13] 0.103 | [14] 0.13 | [15] 0.071 | [16] -0.031 | [17] 0.137 | [18] 0.345

RNPS1 (UniProt Q15287)
active: [20] -0.746
inactive: [1] 0.008 | [2] 0.194 | [3] 0.06 | [4] 0.053 | [5] 0.164 | [6] 0.013 | [7] -0.022 | [8] -0.319 | [9] 0.048 | [10] -0.118 | [11] -0.159 | [12] -0.031 | [13] -0.317 | [14] 0.128 | [15] -0.039 | [16] -0.126 | [17] 0.066 | [18] 0.08

ROCK1 (UniProt Q13464)
active: [19] 0.249
inactive: [1] 0.049 | [2] -0.025 | [3] 0.042 | [4] -0.007 | [5] 0.199 | [6] 0.027 | [7] -0.007 | [8] -0.018 | [9] 0.032 | [10] 0.205 | [11] -0.019 | [12] 0.013 | [13] 0.015 | [14] 0.031 | [15] -0.079 | [16] -0.026 | [17] 0.012 | [18] 0.027 | [20] -0.013

RPS6KA1 isoform 2 (UniProt Q15418)
inactive: [1] -0.032 | [2] 0.104 | [3] -0.082 | [4] 0.107 | [5] 0.034 | [6] 0.039 | [7] -0.135 | [9] -0.093 | [10] 0.023 | [11] -0.013 | [12] -0.062 | [13] -0.167 | [15] -0.092 | [16] -0.164 | [17] 0.059 | [18] -0.006 | [20] 0.018
active: [8] -0.377 | [14] -0.429

RPS8 (UniProt P62241)
inactive: [1] -0.164 | [2] -0.152 | [3] -0.526 | [4] 0.063 | [5] -0.138 | [6] -0.039 | [7] 0.023 | [8] -0.008 | [9] 0.063 | [10] -0.182 | [11] -0.111 | [12] 0.079 | [13] 0.123 | [14] 0.186 | [15] 0.034 | [16] 0 | [17] 0.068 | [18] 0.353 | [19] 0.067 | [20] -0.696

RPTOR (UniProt Q8N122)
inactive: [1] -0.034 | [2] 0.075 | [3] 0.036 | [4] -0.037 | [5] 0.039 | [6] 0.003 | [7] -0.038 | [8] -0.031 | [9] -0.042 | [10] -0.027 | [11] 0 | [12] 0.051 | [13] -0.145 | [14] -0.022 | [15] -0.129 | [16] -0.187 | [17] -0.011 | [18] -0.012 | [20] 0.009

RPRD2 (UniProt Q5VT52)
inactive: [1] 0.211 | [2] -0.012 | [3] -0.035 | [4] -0.093 | [5] -0.059 | [6] -0.034 | [7] 0.186 | [8] -0.133 | [9] -0.096 | [10] -0.206 | [11] -0.096 | [12] -0.103 | [13] -0.017 | [14] -0.048 | [15] -0.229 | [16] -0.262 | [17] 0.035 | [18] 0.138 | [20] -0.13

RPL10A (UniProt P62906)
inactive: [1] -0.41 | [2] -0.403 | [3] -1.07 | [4] 0.085 | [5] -0.235 | [6] -0.054 | [7] -0.091 | [8] 0.039 | [9] 0.02 | [10] -0.484 | [11] -0.217 | [12] 0.051 | [13] 0.262 | [14] 0.239 | [15] 0.067 | [16] -0.007 | [17] 0.206 | [18] 0.628 | [19] 0.094 | [20] -1.16

Two records picked at random from those above, as already listed:
RPL10A (UniProt P62906)
inactive: [1] -0.41 | [2] -0.403 | [3] -1.07 | [4] 0.085 | [5] -0.235 | [6] -0.054 | [7] -0.091 | [8] 0.039 | [9] 0.02 | [10] -0.484 | [11] -0.217 | [12] 0.051 | [13] 0.262 | [14] 0.239 | [15] 0.067 | [16] -0.007 | [17] 0.206 | [18] 0.628 | [19] 0.094 | [20] -1.16

RPTOR (UniProt Q8N122)
inactive: [1] -0.034 | [2] 0.075 | [3] 0.036 | [4] -0.037 | [5] 0.039 | [6] 0.003 | [7] -0.038 | [8] -0.031 | [9] -0.042 | [10] -0.027 | [11] 0 | [12] 0.051 | [13] -0.145 | [14] -0.022 | [15] -0.129 | [16] -0.187 | [17] -0.011 | [18] -0.012 | [20] 0.009

Remaining list, next part.

RPS4X (UniProt P62701)
inactive: [1] -0.177 | [2] -0.092 | [3] -0.37 | [4] 0.054 | [5] -0.042 | [6] -0.033 | [7] -0.043 | [8] 0.043 | [9] 0.076 | [10] -0.221 | [11] -0.129 | [12] 0.025 | [13] 0.126 | [14] 0.106 | [15] 0.003 | [16] -0.025 | [17] 0.074 | [18] 0.273
active: [20] -0.679

RPS12 (UniProt P25398)
active: [20] -0.314
inactive: [1] -0.115 | [2] -0.082 | [3] -0.072 | [4] -0.001 | [5] -0.021 | [6] -0.002 | [7] 0.008 | [8] -0.02 | [9] 0.027 | [10] -0.05 | [11] -0.063 | [12] 0.036 | [13] 0.051 | [14] 0.043 | [15] 0.003 | [16] 0.036 | [17] -0.024 | [18] 0.024

ROR2 (UniProt Q01974)
active: [13] -0.72
inactive: [1] -0.045 | [2] 0.058 | [3] 0.01 | [4] 0.023 | [5] 0.02 | [6] 0.011 | [7] 0.076 | [8] -0.024 | [9] -0.041 | [10] -0.001 | [11] -0.003 | [12] -0.014 | [14] 0.045 | [15] -0.058 | [16] -0.018 | [17] -0.001 | [18] 0.045 | [20] 0.115

RPS27A (UniProt P62979)
inactive: [1] -0.246 | [2] -0.143 | [3] -0.207 | [4] 0.016 | [5] -0.136 | [6] -0.033 | [7] 0.004 | [8] -0.062 | [9] 0.111 | [10] -0.098 | [11] -0.055 | [12] 0.141 | [13] 0.054 | [14] 0.082 | [15] 0.216 | [16] 0.051 | [17] 0.114 | [18] 0.078
active: [20] -0.557

RPL27A (UniProt P46776)
inactive: [1] -0.248 | [2] -0.352 | [3] -0.798 | [4] -0.03 | [5] -0.237 | [6] -0.011 | [7] -0.13 | [8] -0.041 | [9] 0.105 | [10] -0.214 | [11] -0.147 | [12] 0.073 | [13] 0.175 | [14] 0.157 | [15] 0.034 | [16] 0 | [17] 0.073 | [18] 0.445 | [19] 0.13 | [20] -0.677
